Results are given in words; binding and its absence hold for the method and conditions named. Some results given as binding are weak or reduced against the parent protein; the word gives no strength.
What was measured:
[1] = target: CLL subset 2 BCR (HC/LC typical for the CLL subset 2) on TKO cells; experiment: FACS binding assay on TKO cells, anti-mouse IgG detection
[2] = target: CLL subset 2 BCR (HC/LC typical for the CLL subset 2) on TKO cells; experiment: FACS on TKO cells carrying the desired BCR
[3] = target: CLL subset 2 BCR (HC/LC typical for the CLL subset 2) on TKO cells; experiment: FACS on TKO cells, with two blind samples

Measured: binding

B1: AVA-mAb01 (antibody, V domains shown)
VH: QVQLQQSGPGLVQPSQSLSITCTVSGFSLTSYGIHWVRQSPGKGLEWLGVIWRGGGTDSNAAFMSRLSITKDNSKSQVFFKMNSLQADDTAIYYCARSRYDEEESMNYWGQGTSVTVSS
VL: QIVLTQSPASLSASVGETVTITCRASGNIHSYLAWYQQKQGKSPQLLVYNAKTLADGVPSRFSGSGSGTQYSLKINSLQPEDFGSYYCQHFWNTPPTFGAGTKLELK
binds: all assays above

Reference: patent publication US20220356244A1
